## Percent effect of library compounds

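Whole-cell growth test on Mycobacterium tuberculosis, read after 4 days in a medium based on cholesterol and the lipid DPPC; the read-out is not stated. Tested at 50 µM. Higher reads as more growth inhibition (inferred: compounds with an IC50 in retests scored well above the rest). About 69,000 compounds were tested under these conditions; 0.54% (about 370) showed 50% or more at least once.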

The filed quantity is “Percent Effect” (%).
How 0% and 100% were set is not recorded. Most values in the screen are low, and negative values occur.
Compounds were drawn at random from those tested, without regard to their results.
Two or more numbers in one place are separate tests of the same structure; such repeats can differ widely.

| SMILES | percent effect |
|---|---|
| `CC1CN(CC(=O)NCCc2ccncc2)Cc2ccccc2O1` (stereo not given) | -0.8417% |
| `O=C(CCSc1ccc(F)cc1)N1CCN(c2cnccn2)CC1` | 4.604% |
| `Cl.O=C1CC2(CCCNC2)C(=O)N1Cc1ccccc1` (stereo not given) | -20.43% |
| `COc1ccc(CC(=O)N2CCN(C)c3ncccc3C2)cc1.O=C(O)C(F)(F)F` | -23.45% |
| `COc1cccc2c1OCC(NC(=O)NCc1cccs1)C2` (stereo not given) | 1.065% |
| `O=C(O)C(F)(F)F.c1ccc(CN2CCc3c(CNc4nccs4)n[nH]c3C2)nc1` | -25.61% |
| `CSCCC(NC(=O)c1ccccc1)C(=O)N(C)Cc1ccsc1` (stereo not given) | -6.421% |
| `CN1CCN(Cc2cn3c(n2)CN(C2CCOCC2)CC3)CC1.O=C(O)C(F)(F)F.O=C(O)C(F)(F)F.O=C(O)C(F)(F)F` | 9.533% |
| `CC(C)Nc1cccc(CNC(=O)N2CCC(N3CC=CC3)C2)c1` (stereo not given) | -10.94% |
| `Cc1cc(C)n(-c2ccc(CNCc3ccc(OC(C)C)cc3)cn2)n1` | -6.946% |
| `Cc1nc(NC(=O)N2CCCC(N(C)C)C2)nn1C` (stereo not given) | 18.47% |
| `COc1ccc(C2=CNC(C(F)(F)F)=CC2N)cc1` (stereo not given) | 11.46% |
| `COc1ccc(C(=O)N2C[C@@H](NC(=O)N(C)C)[C@H](C(C)C)C2)c(OC)n1` | 18.99% |
| `Cc1[nH]ccc1C(=O)N1CCC(c2nnc(Cn3cccn3)n2C)CC1` | 7.986% |
| `COC(C)c1noc(CN(C)c2nccnc2C#N)n1` (stereo not given) | -27.72% |
| `Cc1ccc(-c2nc(C3CCN(C(=O)c4ccnn4C)CC3)no2)cn1` | 13.93% & 0.5376% |
| `Cc1n[nH]c2c1C(c1cc(F)cc(F)c1)SCC(=O)N2` (stereo not given) | 6.383% |
| `CCc1cc(NC(CCO)c2ccc(OC)cc2)n2nccc2n1` (stereo not given) | -1.37% |
| `O=C(c1cnccn1)N1CCC2(CCN(Cc3ccsc3)C2)CC1` | -4.168% |
| `N#Cc1cccnc1N1CCCC(CO)(Cc2ccccc2F)C1` (stereo not given) | 0.1514% |
| `CN1CCOC(CNCc2nc(-c3ccoc3)no2)C1` (stereo not given) | 26.96% |
| `O=C(CC1NC(N2CCc3ccccc32)=NC1=O)Nc1ccccc1` (stereo not given) | 1.99% |
| `O=C1NCCN1C1CCN(Cc2nc(-c3ccccc3)no2)CC1` | 15.04% |
| `[H][C@]12CC[C@]([H])(CN(Cc3cscn3)C1)N(Cc1c(C)noc1C)C2=O` | -14.96% |
| `O=C(NCC1CCCCO1)c1ccc(-c2cccs2)[nH]c1=O` (stereo not given) | -6.781% & -14.58% |
| `NC(=O)c1ccc(OCC(=O)N2CCCC(n3cccn3)C2)cc1` (stereo not given) | -16.05% |
| `Cc1nc2cc(CNC(=O)C3CC(=O)N(C4CCCC4)C3)ccc2n1C` (stereo not given) | -12.41% |
| `O=C(c1ccc(C2CCCN2)s1)N1CCN(C(=O)N2CCOCC2)CC1` (stereo not given) | 3.89% & 4.587% |
| `OC1CCCN(Cc2ccc(F)c3cccnc23)C1` (stereo not given) | -27.59% |
| `COc1ccccc1OCCCc1cncc(C(N)=O)c1` | 0.6251% & 0.4506% |
| `[H][C@]12CC[C@]([H])(CN(c3nccc(NC)n3)C1)N(CCOC)C2=O` | -7.348% & 1.644% |
| `COc1ncccc1C(=O)Nc1cccc(C[S+](C)[O-])c1C` (stereo not given) | 4.496% |
| `CC(C)n1cnnc1CN(C)Cc1cnc(-c2ccccn2)nc1` | -25.96% & 4.435% |
| `NCC1(c2cccc(C(F)(F)F)c2)CCCC1` | -12.58% |
| `O=S(=O)(N1CCOCC1)N1CCCC(c2ccccn2)C1` (stereo not given) | -8.165% & 5.203% |
| `Cc1nc2sccn2c1CN(CCCN(C)C)Cc1ccccn1.O=C(O)CC(O)(CC(=O)O)C(=O)O` | -10.49% & -34.21% |
| `O=C(O)c1cc(NS(=O)(=O)c2ccccc2F)ccc1N1CCSCC1` | -9.822% |
| `Cc1nc(C)n(CC2CN(CCCOc3ccc(F)cc3)CCO2)n1` (stereo not given) | 24.44% |
| `CCN(CC)C(=O)CSc1nc2cc(C)nc-2c(O)n1Cc1ccco1` | 3.544% |
| `Cc1ccc(OCC(=O)N2CCOCC(O)(CN3CCCC3)C2)cc1C` (stereo not given) | 0.1029% |
| `CN1CCN(c2ncccn2)CC12CCC(=O)N(CC1CC1)CC2` (stereo not given) | -11.15% & -11.12% |
| `CN(Cc1ccc([S+](C)[O-])cc1)c1cncc(Cl)n1` (stereo not given) | 14.71% |
| `CC(C)c1n[nH]c(C2CN(C(=O)c3cccc4cn[nH]c34)CCO2)n1` (stereo not given) | -0.8232% |
| `CCOc1ccc(CC(CNC(=O)c2ccoc2)C(N)=O)cc1` (stereo not given) | 15.13% |
| `O=C(O)C(F)(F)F.[H][C@]12CC[C@@]3(N=C(CC)N(C)C3=O)[C@@]1([H])CN(Cc1ccc(C)cc1)C2` | -6.229% |
| `Cc1sc2c(C3CCCN(C)C3)nc(C)n2c1C` (stereo not given) | -28.07% |
| `O=c1cc(CN(CCO)C2CC2)nc2ccccn12` | -14.11% & -11.75% |
| `Cc1ccc(CNC(=O)c2ccc(CNS(C)(=O)=O)o2)cc1F` | -7.869% |
| `CCc1c(C)sc(NC(=O)CN2CCN(CC)CC2)c1C(=O)OC` | 73.32% |
| `COc1ccc(C2CCCN2C(=O)CCNc2ncccn2)cc1` (stereo not given) | 3.03% |
| `CCOc1ccc2[nH]c(=O)c(CN3CCN(S(N)(=O)=O)CC3)cc2c1` | -25.04% |
| `Cc1cnc(N2CCC(c3ccccc3)CC2)nc1-c1ccnn1C` | 31.79% & 10.26% |
| `Cl.O=C(NCCn1nc(C2CCNC2)c2cccnc21)c1ccccc1` (stereo not given) | 3.96% |
| `Cn1ccnc1C(NCc1ccc(Br)cc1)c1ccccc1` (stereo not given) | -0.6424% |
| `Cn1ccnc1CN1CCC(Cn2cc(-c3ccncc3)nn2)CC1` | -6.027% |
| `CN(C)C(=O)CNC(=O)c1cc2ccccc2nc1N1CCCC1` | -20.06% |
| `CCN(Cc1ccco1)C(=O)NCC(c1cccs1)N(C)C` (stereo not given) | -11.78% |
| `CCC(NC(=O)NCc1nncn1CC)c1ccc(OC)cc1` (stereo not given) | -6.223% & -10.09% |
| `Cc1nc(-c2ccc(S(=O)(=O)N3CCC4(CC3)OCCO4)cc2)co1` | -0.6114% |
| `COC(=O)C(C)(C)NC(=O)c1cc(COc2ccccc2OC)[nH]n1` | -15.9% |
| `O=C(c1ccn(-c2cccc(F)c2)n1)N1CCCC(n2cccn2)C1` (stereo not given) | 13.81% |
| `O=C(Nc1ccccn1)N(CCO)Cc1ccccc1Br` | 21.82% |
| `CNS(=O)(=O)c1ccc(CNC(=O)NCc2cc[nH]n2)cc1` | -6.613% |
| `CC(C)Oc1ccc(CN2CCN3CCN(C)CC3C2)cc1CO` (stereo not given) | -28.18% |
| `COCCn1c2c(ccc1=O)CCN(C(=O)Cc1cccs1)CC2` | -12.38% |
| `COc1ccc(CNc2cccnc2-n2cccn2)cc1OC` | 8.488% |
| `CCc1noc(C(C)N(C)CC(=O)Nc2ccc(C)cc2)n1` (stereo not given) | -6.735% |
| `Cc1nc(C2CCCN(C(=O)c3scnc3C)C2)no1` (stereo not given) | -5.823% |
| `CC(C)c1nc(CC(=O)Nc2cnccc2O)cs1` | -20.45% |
| `CC(=O)Nc1nc(C2CCN(C(=O)c3ccncc3)CC2)cs1` | -11.45% |
| `Cc1nnc2sc(-c3cc(C(C)C)n[nH]3)nn12` | 3.32% |
| `CN1CCCC(c2cncc(-c3cccc(C(F)(F)F)c3)n2)C1` (stereo not given) | 35.89% |
| `CCNC(=O)NC[C@@H]1C=C(C)[C@H](CC(=O)NCCN(C)C)C[C@H]1C(C)C` | 9.211% |
| `c1cc(-c2nccn2CCc2nc3c(s2)CCC3)ccn1` | -17.79% |
| `O=C(COc1ccc(C(F)(F)F)cc1)N1CCOCC1c1ncon1` (stereo not given) | -25.75% |
| `O=C(c1ccc(Br)o1)N1CCCCC1Cn1cccn1` (stereo not given) | 3.166% |
| `COc1cccc(CNCc2cccnc2)c1` | -0.7834% |
| `CC[C@]12CN3C[C@](CC)(CN(C1)C3c1[nH]c(=O)[nH]c(=O)c1C)C2=O` (stereo not given in full) | -20.52% |
| `CN(C)CCNC(=O)CCC1CCN(C(=O)c2ccc(Cl)cc2O)CC1` | 21.95% |
| `Cc1noc(C)c1CN1CC2(CCN(C(=O)c3ccc[nH]3)C2)CC1=O` (stereo not given) | -6.264% |
| `CN(C)[C@@H]1CCN(c2ncc(F)cn2)[C@H]1Cc1ccncc1.O=C(O)C(F)(F)F.O=C(O)C(F)(F)F` | -6.026% |
| `Cn1nc(CNC(=O)C2CCC2)cc1C1CC1` | -19.14% |
| `COc1c(CNCc2ccc(S(C)(=O)=O)cc2)c(C)nn1C` | -28.86% |
| `COCC1CC2(CCN(C(=O)c3cc(C)oc3C)CC2)CN1C(C)C.O=C(O)C(F)(F)F` (stereo not given) | 0.4385% & -1.488% |
| `Cc1cnn(CC2CCN(CC(O)COc3ccccc3)CC2)c1` (stereo not given) | -8.95% |
| `Nc1nccnc1CC1CCCN(Cc2cccc3[nH]ccc23)C1` (stereo not given) | -15.26% |
| `[H][C@]12CCCCN1CCC[C@H]2CCC(=O)NCCc1cc(O)nc(C)n1` | -11.8% |

Repeated from the top, 7 entries:

- CC1CN(CC(=O)NCCc2ccncc2)Cc2ccccc2O1 (stereo not given) : -0.8417%
- O=C(CCSc1ccc(F)cc1)N1CCN(c2cnccn2)CC1 : 4.604%
- Cl.O=C1CC2(CCCNC2)C(=O)N1Cc1ccccc1 (stereo not given) : -20.43%
- COc1ccc(CC(=O)N2CCN(C)c3ncccc3C2)cc1.O=C(O)C(F)(F)F : -23.45%
- COc1cccc2c1OCC(NC(=O)NCc1cccs1)C2 (stereo not given) : 1.065%
- O=C(O)C(F)(F)F.c1ccc(CN2CCc3c(CNc4nccs4)n[nH]c3C2)nc1 : -25.61%
- CSCCC(NC(=O)c1ccccc1)C(=O)N(C)Cc1ccsc1 (stereo not given) : -6.421%

Data taken from ChEMBL document CHEMBL3988442, “University of Dundee, Small-Polar-MMV Screening Library” (2021).